We go through 22 targets from the supplement of paper PMC10849652.

Sequences of proteins named here, by UniProt entry; tags and fusion partners are left off. A change or cut given only in a name is not applied to a line headed by its entry.
UniProt Q92581: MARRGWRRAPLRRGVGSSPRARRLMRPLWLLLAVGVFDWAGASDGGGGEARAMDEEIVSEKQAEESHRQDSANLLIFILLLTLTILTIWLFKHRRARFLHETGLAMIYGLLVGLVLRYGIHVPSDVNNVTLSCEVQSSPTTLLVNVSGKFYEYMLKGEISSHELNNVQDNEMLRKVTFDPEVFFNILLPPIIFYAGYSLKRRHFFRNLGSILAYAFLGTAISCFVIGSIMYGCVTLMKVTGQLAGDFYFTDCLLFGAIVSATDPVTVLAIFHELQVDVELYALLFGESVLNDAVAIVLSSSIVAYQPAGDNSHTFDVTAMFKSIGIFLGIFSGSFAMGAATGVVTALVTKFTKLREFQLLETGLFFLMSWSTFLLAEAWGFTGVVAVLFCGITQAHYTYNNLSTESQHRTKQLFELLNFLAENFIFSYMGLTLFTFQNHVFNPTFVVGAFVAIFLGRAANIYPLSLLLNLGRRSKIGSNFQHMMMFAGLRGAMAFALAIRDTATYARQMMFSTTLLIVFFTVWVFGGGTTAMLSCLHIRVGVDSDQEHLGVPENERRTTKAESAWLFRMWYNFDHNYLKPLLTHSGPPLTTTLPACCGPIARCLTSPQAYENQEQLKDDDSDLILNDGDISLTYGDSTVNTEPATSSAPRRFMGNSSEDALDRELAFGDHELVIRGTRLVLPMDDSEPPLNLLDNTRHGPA
UniProt Q6KCM7: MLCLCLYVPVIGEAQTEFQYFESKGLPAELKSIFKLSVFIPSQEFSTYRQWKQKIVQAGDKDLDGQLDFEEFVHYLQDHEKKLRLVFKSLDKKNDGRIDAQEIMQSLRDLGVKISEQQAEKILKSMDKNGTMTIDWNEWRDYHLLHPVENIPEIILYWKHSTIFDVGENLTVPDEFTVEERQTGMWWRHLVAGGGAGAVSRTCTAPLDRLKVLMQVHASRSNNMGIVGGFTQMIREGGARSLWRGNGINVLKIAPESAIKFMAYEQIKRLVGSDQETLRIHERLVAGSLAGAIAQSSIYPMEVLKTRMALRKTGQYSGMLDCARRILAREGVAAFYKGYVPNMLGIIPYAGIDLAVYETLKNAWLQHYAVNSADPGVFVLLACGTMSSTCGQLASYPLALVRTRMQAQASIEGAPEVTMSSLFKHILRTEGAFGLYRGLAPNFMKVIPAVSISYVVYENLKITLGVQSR
UniProt Q9H2H9: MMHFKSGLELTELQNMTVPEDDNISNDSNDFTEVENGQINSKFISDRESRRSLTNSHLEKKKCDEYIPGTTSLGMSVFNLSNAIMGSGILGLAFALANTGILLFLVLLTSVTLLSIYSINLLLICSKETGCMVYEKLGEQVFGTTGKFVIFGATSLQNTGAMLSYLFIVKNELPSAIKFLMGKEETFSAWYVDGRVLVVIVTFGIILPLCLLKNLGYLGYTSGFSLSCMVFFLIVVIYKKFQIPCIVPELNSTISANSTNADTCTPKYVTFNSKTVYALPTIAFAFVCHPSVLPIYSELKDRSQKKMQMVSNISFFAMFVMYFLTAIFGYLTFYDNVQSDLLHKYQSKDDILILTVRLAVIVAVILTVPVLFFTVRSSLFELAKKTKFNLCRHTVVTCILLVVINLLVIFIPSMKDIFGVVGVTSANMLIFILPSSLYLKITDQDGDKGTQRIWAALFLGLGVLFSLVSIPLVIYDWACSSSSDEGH
UniProt Q9H0C2: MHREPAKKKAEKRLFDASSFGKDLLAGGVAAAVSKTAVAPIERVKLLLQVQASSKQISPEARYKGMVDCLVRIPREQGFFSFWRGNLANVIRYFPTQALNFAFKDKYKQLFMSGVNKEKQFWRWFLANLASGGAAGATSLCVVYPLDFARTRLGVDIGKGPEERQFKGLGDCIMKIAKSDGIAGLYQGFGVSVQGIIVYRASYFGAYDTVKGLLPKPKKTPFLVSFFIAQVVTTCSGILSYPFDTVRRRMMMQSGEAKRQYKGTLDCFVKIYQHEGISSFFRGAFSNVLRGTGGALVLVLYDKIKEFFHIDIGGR
UniProt O95258: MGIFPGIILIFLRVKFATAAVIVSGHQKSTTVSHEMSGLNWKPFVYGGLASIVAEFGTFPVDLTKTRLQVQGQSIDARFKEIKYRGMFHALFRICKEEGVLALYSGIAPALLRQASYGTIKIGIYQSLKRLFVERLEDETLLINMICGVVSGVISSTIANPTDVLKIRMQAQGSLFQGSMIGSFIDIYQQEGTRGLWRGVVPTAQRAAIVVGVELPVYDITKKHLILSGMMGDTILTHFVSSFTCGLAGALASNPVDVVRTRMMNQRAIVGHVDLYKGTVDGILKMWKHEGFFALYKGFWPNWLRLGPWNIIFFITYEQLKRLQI
UniProt O43772: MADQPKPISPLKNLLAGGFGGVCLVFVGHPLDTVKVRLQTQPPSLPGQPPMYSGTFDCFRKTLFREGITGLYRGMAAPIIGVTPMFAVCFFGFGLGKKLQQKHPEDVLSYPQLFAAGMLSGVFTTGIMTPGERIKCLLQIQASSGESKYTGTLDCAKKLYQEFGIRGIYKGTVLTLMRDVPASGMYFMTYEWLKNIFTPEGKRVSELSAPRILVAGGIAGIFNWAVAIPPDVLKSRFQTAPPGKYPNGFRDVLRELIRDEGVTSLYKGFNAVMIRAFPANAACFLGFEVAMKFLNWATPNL
UniProt O00400: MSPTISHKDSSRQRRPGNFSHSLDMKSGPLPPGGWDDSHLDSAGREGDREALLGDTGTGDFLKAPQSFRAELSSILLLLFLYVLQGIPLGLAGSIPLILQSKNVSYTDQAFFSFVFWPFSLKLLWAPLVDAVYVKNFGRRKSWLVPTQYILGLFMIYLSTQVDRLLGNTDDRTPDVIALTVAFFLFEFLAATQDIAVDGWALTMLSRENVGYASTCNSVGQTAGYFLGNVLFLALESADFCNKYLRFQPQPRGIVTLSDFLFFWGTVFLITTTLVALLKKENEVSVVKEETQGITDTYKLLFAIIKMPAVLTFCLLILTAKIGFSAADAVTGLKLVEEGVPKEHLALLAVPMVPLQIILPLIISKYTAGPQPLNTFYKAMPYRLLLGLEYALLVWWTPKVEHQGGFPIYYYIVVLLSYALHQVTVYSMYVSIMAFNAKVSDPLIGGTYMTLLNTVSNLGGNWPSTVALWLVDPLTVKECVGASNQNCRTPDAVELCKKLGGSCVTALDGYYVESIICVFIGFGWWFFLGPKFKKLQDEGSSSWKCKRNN
UniProt Q8WU79: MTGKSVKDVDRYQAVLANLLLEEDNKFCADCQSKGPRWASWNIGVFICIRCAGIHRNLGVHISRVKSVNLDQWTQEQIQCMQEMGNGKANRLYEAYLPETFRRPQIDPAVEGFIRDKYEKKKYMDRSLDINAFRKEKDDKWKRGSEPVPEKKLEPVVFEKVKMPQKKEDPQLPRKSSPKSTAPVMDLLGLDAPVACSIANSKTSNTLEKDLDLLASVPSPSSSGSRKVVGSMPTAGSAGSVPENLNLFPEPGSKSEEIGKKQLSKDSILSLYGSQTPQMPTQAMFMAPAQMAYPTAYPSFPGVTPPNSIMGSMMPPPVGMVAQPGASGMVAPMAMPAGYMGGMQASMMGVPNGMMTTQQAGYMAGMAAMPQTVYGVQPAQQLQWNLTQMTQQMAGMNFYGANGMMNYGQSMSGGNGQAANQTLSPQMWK
UniProt Q9BRY0: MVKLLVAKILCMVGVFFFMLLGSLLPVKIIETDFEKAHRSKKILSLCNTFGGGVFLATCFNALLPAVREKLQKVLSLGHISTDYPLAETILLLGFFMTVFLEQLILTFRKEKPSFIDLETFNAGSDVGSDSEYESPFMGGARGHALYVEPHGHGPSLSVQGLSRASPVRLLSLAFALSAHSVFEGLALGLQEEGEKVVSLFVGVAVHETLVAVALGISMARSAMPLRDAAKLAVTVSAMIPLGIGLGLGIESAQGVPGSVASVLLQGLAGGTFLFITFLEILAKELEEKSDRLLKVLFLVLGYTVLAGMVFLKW
UniProt Q9H1U9: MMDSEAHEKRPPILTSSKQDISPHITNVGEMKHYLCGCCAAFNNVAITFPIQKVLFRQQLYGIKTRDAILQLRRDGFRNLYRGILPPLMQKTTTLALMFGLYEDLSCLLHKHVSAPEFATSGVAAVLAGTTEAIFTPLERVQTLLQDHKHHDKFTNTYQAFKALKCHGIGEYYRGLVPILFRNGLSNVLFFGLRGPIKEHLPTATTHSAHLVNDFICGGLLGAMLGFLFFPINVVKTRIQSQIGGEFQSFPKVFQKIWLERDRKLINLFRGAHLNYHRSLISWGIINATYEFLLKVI
UniProt P12236: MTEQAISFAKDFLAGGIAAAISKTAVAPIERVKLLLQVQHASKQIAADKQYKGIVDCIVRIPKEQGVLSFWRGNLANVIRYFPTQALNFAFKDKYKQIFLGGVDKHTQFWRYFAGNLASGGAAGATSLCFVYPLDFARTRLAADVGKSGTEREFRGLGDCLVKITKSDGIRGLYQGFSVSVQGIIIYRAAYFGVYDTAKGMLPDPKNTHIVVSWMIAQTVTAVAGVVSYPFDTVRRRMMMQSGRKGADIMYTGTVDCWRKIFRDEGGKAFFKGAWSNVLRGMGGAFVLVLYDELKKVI
UniProt Q9Y619: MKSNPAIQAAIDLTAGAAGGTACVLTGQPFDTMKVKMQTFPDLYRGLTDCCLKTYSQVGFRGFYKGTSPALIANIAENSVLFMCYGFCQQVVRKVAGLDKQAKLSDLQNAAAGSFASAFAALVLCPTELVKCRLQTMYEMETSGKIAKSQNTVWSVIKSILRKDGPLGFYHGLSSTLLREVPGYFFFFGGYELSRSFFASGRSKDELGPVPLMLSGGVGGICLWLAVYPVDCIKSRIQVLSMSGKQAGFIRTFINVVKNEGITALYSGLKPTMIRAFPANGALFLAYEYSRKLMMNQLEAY
UniProt P19634, whole entry, looked up: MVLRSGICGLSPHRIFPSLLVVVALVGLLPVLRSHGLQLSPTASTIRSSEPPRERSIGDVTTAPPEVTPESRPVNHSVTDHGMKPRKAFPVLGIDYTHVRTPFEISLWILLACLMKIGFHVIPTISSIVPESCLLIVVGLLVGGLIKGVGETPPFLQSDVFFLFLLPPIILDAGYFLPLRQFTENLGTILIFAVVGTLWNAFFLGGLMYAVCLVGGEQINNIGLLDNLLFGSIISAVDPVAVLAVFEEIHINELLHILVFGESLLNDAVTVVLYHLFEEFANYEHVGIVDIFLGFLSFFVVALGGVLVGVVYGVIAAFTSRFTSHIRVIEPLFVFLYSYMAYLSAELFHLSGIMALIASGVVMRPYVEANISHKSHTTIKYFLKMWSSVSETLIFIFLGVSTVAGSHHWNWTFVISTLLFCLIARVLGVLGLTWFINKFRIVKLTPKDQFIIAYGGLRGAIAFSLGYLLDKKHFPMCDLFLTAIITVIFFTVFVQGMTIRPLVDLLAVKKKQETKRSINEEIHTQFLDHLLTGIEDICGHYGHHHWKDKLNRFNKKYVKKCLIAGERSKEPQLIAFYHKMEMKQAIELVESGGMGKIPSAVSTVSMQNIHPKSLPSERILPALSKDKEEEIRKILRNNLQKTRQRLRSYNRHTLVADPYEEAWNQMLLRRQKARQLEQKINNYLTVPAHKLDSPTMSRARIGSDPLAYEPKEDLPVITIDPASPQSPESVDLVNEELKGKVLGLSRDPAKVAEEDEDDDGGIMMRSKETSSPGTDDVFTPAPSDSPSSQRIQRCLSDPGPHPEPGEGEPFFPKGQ
UniProt L0R6Q1: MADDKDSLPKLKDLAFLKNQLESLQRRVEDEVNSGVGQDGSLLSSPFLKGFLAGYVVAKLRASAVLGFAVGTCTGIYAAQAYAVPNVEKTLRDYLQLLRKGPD
UniProt Q96DW6: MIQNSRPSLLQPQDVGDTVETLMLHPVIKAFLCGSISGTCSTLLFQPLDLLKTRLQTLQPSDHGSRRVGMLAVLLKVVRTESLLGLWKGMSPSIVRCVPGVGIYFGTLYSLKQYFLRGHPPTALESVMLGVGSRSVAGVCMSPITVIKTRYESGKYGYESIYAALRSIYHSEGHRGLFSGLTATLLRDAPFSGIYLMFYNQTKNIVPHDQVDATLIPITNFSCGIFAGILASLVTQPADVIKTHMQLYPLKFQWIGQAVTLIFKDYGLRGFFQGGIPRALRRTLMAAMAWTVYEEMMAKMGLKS
UniProt Q96AG3: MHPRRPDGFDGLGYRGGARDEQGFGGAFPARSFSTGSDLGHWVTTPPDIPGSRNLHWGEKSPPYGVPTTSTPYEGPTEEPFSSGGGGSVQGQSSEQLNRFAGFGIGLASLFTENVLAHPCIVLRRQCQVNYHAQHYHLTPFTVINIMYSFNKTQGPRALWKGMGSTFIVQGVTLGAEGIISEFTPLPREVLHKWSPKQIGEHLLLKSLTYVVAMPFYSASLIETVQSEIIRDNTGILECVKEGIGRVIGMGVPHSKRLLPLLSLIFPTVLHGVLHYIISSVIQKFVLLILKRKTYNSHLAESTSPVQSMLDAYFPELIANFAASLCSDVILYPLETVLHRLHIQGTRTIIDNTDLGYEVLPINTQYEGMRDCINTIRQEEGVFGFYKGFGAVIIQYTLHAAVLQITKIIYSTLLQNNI

Some of the results follow.

Compound in this assay: CCN(CCCOc1ccc2c(Nc3cc(CC(=O)Nc4cccc(F)c4)[nH]n3)ncnc2c1)CCOP(=O)(O)O [barasertib]
The experiment in a line: log2 fold change, soluble protein after heating vs DMSO (PISA); higher = thermal stabilisation; K562 lysate, 10 uM; active = over 0.2 and 3.5 SD of the protein, either way, in both replicates (recomputed). A digest of the protocol:
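Quantification was by TMTpro 16plex LC-MS/MS with equalised channel sums, applied to the supernatant after 21,000xg for 90 min. Samples were crude K562 extract at 1 mg/mL protein in PBS pH 7.4 with 1 mM MgCl2, treated with 10 μM compound for 30 min, heated for 3 min across 48°C-58°C, pooled and brought to 0.5% NP-40 at 4°C. Values are log-two fold changes in thermal stability relative to solvent controls, from duplicates.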
Take SLC9A6 isoform 2 (UniProt Q92581): the log2 fold change is inactive: 0.125.

As for SLC25A25 isoform 3 (UniProt Q6KCM7), the log2 fold change was inactive: 0.004.

SLC38A1 (UniProt Q9H2H9): the log2 fold change was inactive: 0.

Turning to SLC25A31 (UniProt Q9H0C2), the log2 fold change was inactive: -0.001.

For the target SLC25A14 isoform 3 (UniProt O95258), the log2 fold change was inactive: 0.071.

On to SLC38A2 (UniProt Q96QD8), for which the log2 fold change is inactive: 0.042.

On to SLC7A1 (UniProt P30825), for which the log2 fold change is inactive: 0.004.

On to SLC25A20 (UniProt O43772), for which the log2 fold change is inactive: 0.011.

As for SLC33A1 (UniProt O00400), the log2 fold change was inactive: -0.015.

As for SMAP2 (UniProt Q8WU79), the log2 fold change is inactive: 0.013.

As for SLC30A10 (UniProt Q6XR72), the log2 fold change was inactive: 0.142.

For the target SLC35F6 (UniProt Q8N357), the log2 fold change is inactive: 0.006.

SLC39A3 (UniProt Q9BRY0): the log2 fold change is inactive: -0.003.

On to SLC35B2 (UniProt Q8TB61), for which the log2 fold change was inactive: 0.034.

Regarding SLC25A51 (UniProt Q9H1U9), the log2 fold change was inactive: 0.035.

As to SLC25A6 (UniProt P12236), the log2 fold change is inactive: -0.033.

Consider SLC25A15 (UniProt Q9Y619), for which the log2 fold change was inactive: -0.004.

Turning to SLC25A37 (UniProt Q9NYZ2), the log2 fold change was inactive: -0.038.

For SLC9A1 (UniProt P19634), the log2 fold change is inactive: -0.09.

With SLC35A4 (UniProt L0R6Q1), the log2 fold change is inactive: 0.123.

Turning to SLC25A38 (UniProt Q96DW6), the log2 fold change was inactive: -0.005.

In the case of SLC25A46 (UniProt Q96AG3), the log2 fold change is inactive: 0.005.
